Experimental data as given in PubChem BioAssay AID2685 (National Center for Advancing Translational Sciences (NCATS), 2010).
Some of the results follow. The main result of the screen is listed elsewhere. These columns were measured beside it and carry no call. Compounds called inactive in the main read-out are mostly missing here. Potencies come from curve fits of mixed quality, noted in brackets.

Assay: qHTS Assay for Lipid Storage Modulators in Drosophila S3 Cells;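 on cell number change: cells counted by Cell Tracker Red CMTPX staining in the red channel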
Details: BODIPY lipid droplet fluorescence, 18-24 h; for cell number change: measured here: cell count max response, cells fed with added oleic acid
How it was run: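 Laser-scanning cytometry quantifies lipid droplet accumulation (500–530 nm total intensity; droplet/cell object ratio) in oleic acid-fed (400 uM added) Drosophila S3 cells treated with a concentration series. 20 uM Triacsin C defined 100% inhibition.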

[1] = measured here: cell number channel AC50, cells fed with added oleic acid
[2] = measured here: lipid fluorescence (Fed channel) AC50, cells fed with added oleic acid

CN(C)C(=O)CCC(=O)N1CCCC(C(=O)c2ccc(C(F)(F)F)cc2)C1 (centres undefined)
cell number change: 4.12%

COc1cc2c(c(OC)c1)C(c1ccncc1)CC(=O)N2 (centres undefined)
AC50 [1]: 6.51 µM [rising, single point] | AC50 [2]: 4.61 µM [falling, partial curve, poor fit]

COc1ccc(C(F)(F)F)cc1N/C=C\c1nnnn1-c1ccc(C)cc1
cell number change: 6.94%

COc1ccc(OCc2nn[nH]n2)cc1
cell number change: 26.7% | AC50 [2]: 29.1 µM [rising, single point]

Cc1[nH]c2ccccc2c1SCC(=O)NNC(=O)Nc1ccc(OC(F)(F)F)cc1
AC50 [1]: 6.51 µM [falling, single point]

CCCCN(C(=O)C1CC(=O)N(c2ccc3c(c2)OCCO3)C1)c1c(N)n(CC(C)C)c(=O)[nH]c1=O (centres undefined)
cell number change: -63.4% | AC50 [1]: 20.6 µM [falling, single point] | AC50 [2]: 2.06 µM [falling, partial curve, poor fit]

COc1cccc(CNC(=O)c2cccc(Br)c2)c1
AC50 [1]: 2.59 µM [falling, partial curve] | AC50 [2]: 0.731 µM [falling, partial curve, poor fit]

COc1cc(C(c2nnnn2C(C)(C)C)N2CCN(c3nc4ccccc4s3)CC2)ccc1O (centres undefined)
cell number change: 0.407%

COc1ccc(C(=O)COC(=O)CCn2nnc(-c3cccc(O)c3OC)n2)cc1
cell number change: 3.3%

CCOC(=O)C1=C(C)Nc2ccccc2N=C1NC(=O)c1cccc(S(=O)(=O)NCc2ccccc2)c1
cell number change: 41.8% | AC50 [1]: 2.91 µM [rising, full curve] | AC50 [2]: 2.91 µM [rising, partial curve]

N#CCC(=O)N/N=C/c1ccc(OC2CSC2)cc1
cell number change: 22.9% | AC50 [2]: 5.17 µM [rising, full curve, poor fit]

COc1ccc(C)cc1NC(=O)COC(=O)c1ccc(OCc2ccc(Cl)cc2Cl)c(OC)c1
cell number change: 29.7%

O=[N+]([O-])CC(=Nc1ccc(F)cc1)N/N=C\c1oc(O)c2ccccc12
cell number change: 13.7% | AC50 [2]: 6.51 µM [rising, full curve, poor fit]

O=C(NCc1ccccn1)c1ccc2c(c1)N(Cc1ccccc1)CCS2
cell number change: -37.2%

Cc1[nH]c2ccccc2c1N=Nc1ccc(F)cc1
cell number change: -131% | AC50 [1]: 29.1 µM [falling, partial curve]

COc1ccc(NC(=O)c2ccc(Cl)nc2)cc1S(=O)(=O)N1CCOCC1
cell number change: 20.1% | AC50 [2]: 2.59 µM [falling, single point]

Cc1cc(C)n(CCNC(=O)C2CCC(=O)N(CCc3cccc(F)c3)C2)n1 (centres undefined)
cell number change: 3.23% | AC50 [2]: 32.6 µM [falling, single point]

COc1ccc(NS(=O)(=O)c2ccc(N/N=C/c3ccc(N4CCOCC4)cc3)c([N+](=O)[O-])c2)cc1
cell number change: -33.3% | AC50 [1]: 3.26 µM [falling, full curve] | AC50 [2]: 5.8 µM [falling, full curve]

CN1CCN(C(=S)NC(=O)c2ccc(C(C)(C)C)cc2)CC1
cell number change: -1.49% | AC50 [2]: 6.51 µM [falling, single point]

Cc1cc(OCCCC(=O)NC2=NCCS2)ccc1Cl
cell number change: 18.2% | AC50 [2]: 29.1 µM [rising, single point]

O=C(COc1ccc(-n2cnnn2)cc1)Nc1ccc(F)c(F)c1F
cell number change: -45.1% | AC50 [1]: 29.1 µM [falling, single point] | AC50 [2]: 0.461 µM [rising, full curve, poor fit]

Cc1nnc(SCCn2c(N3CC(C)CC(C)C3)nc3c2c(=O)[nH]c(=O)n3C)s1 (centres undefined)
cell number change: 3.17% | AC50 [2]: 1.84 µM [rising, partial curve, poor fit]

COc1ccc(NC(=O)CSc2nc3c(cc2C#N)CN(C)CC3)cc1
cell number change: 16.7% | AC50 [1]: 1.03 µM [rising, full curve, poor fit]

O=C(COc1ccccc1Cl)Nc1cccc(S(=O)(=O)N2CCCC2)c1
cell number change: -32.5% | AC50 [1]: 29.1 µM [falling, single point] | AC50 [2]: 0.92 µM [rising, full curve, poor fit]

O=C(c1cccc(NC2=NC3CS(=O)(=O)CC3S2)c1)N1CCN(c2ncccn2)CC1 (centres undefined)
cell number change: -8.93% | AC50 [2]: 0.0651 µM [falling, full curve, poor fit]

CCOC(=O)C1Cn2c(nc3c(c2=O)C(C)(CC)Cc2ccccc2-3)S1 (centres undefined)
cell number change: -20.8% | AC50 [2]: 2.06 µM [rising, partial curve]

COCCNC(=O)c1ccc(S(=O)(=O)N2CCCc3ccccc32)cc1
cell number change: 8.7% | AC50 [2]: 29.1 µM [rising, single point]

CC(=O)Nc1ccc(S(=O)(=O)Nc2nnc(C(C)C)s2)cc1
cell number change: -8.06% | AC50 [2]: 18.4 µM [falling, partial curve]

Cc1nc(N2CCN(c3ccccn3)CC2)c2c(C)c(C(=O)Nc3ccc(Cl)cc3)sc2n1
cell number change: 54.1% | AC50 [1]: 29.1 µM [rising, single point] | AC50 [2]: 8.2 µM [falling, single point]

CC(=O)N1CCc2cc(S(=O)(=O)NC(C)c3ccccc3)ccc21 (centres undefined)
cell number change: -21.3% | AC50 [1]: 1.46 µM [falling, full curve]

CC(C)n1nnc(-c2ccc(OCc3ccccc3F)cc2)n1
cell number change: 16.4% | AC50 [1]: 0.461 µM [rising, full curve, poor fit]

Cc1cc(N2CCN(c3ccccc3)CC2)nc(-n2nc(C)cc2C)n1
cell number change: -14.4% | AC50 [2]: 7.31 µM [falling, single point]

O=C(NC1CCCc2ccccc21)C1CCCN(S(=O)(=O)c2cnc[nH]2)C1 (centres undefined)
cell number change: -16.6% | AC50 [2]: 0.00731 µM [rising, full curve, poor fit]

Cc1ccc(CCC(=O)Nc2ccc(Br)cc2)o1
cell number change: -26.9%

c1ccc(NC2=NCCN2CC2CCC2)cc1
cell number change: -18.5% | AC50 [2]: 0.411 µM [falling, single point]

C/C(=N\NC(=O)CNC(=O)c1ccccc1Br)c1ccco1
cell number change: -1.59% | AC50 [2]: 0.58 µM [falling, single point]

O=S(=O)(c1cccc(F)c1)N1CCN(C(=S)NCC2CCCO2)CC1 (centres undefined)
cell number change: 10.4% | AC50 [2]: 11.2 µM [rising, partial curve]

CCOc1ccc(N2C(=O)c3ccccc3C2=O)cc1
cell number change: 7.37%

COCCn1c(=O)[nH]c2cc(C(=O)N3CCN(c4ccc(Cl)cc4)CC3)ccc2c1=O
cell number change: -1.8% | AC50 [2]: 0.651 µM [falling, partial curve, poor fit]

NNC(=O)Cn1nc(-c2ccccc2)c2ccccc2c1=O
cell number change: 13.5% | AC50 [2]: 0.231 µM [rising, full curve, poor fit]

Nc1cc(C(=O)O)ccc1N1CCCCCC1
cell number change: -13.6% | AC50 [2]: 2.06 µM [falling, full curve, poor fit]

C=CCOc1ccccc1C1NC(=O)NC(C)=C1C(=O)NCc1ccccc1 (centres undefined)
cell number change: 73.7% | AC50 [1]: 11.6 µM [rising, partial curve] | AC50 [2]: 2.31 µM [rising, partial curve]

CC(C)CCNC(=O)C1CCN(c2nnc(-n3cccc3)s2)CC1
cell number change: 21.7% | AC50 [2]: 29.1 µM [rising, single point]

CCCC(=O)Nc1sc2c(c1C#N)CCCC2
AC50 [1]: 5.8 µM [rising, single point] | AC50 [2]: 6.51 µM [rising, single point]

O=C(CS(=O)(=O)Cc1ccccc1)N1CCN(Cc2ccc3c(c2)OCO3)CC1
cell number change: -9.2% | AC50 [2]: 2.31 µM [rising, partial curve, poor fit]

O=C(NNC(=O)C1C2C=CC(C2)C1C(=O)O)c1cc(Cl)ccc1O (centres undefined)
cell number change: -3.97% | AC50 [1]: 0.13 µM [falling, full curve, poor fit]

COc1ccc(C(=O)N/N=C(\N)c2cc3ccccc3oc2=O)cc1
AC50 [1]: 2.91 µM [rising, single point]

Cc1ccc(Cn2ccc(NC(=O)C3C4CCC(C4)C3C(=O)O)n2)cc1 (centres undefined)
cell number change: 43.8% | AC50 [1]: 29.1 µM [rising, single point] | AC50 [2]: 0.00517 µM [falling, full curve, poor fit]

COc1ccc(C)cc1N(CC(=O)NCCSCc1cccc(Cl)c1)S(C)(=O)=O
cell number change: -7.3% | AC50 [2]: 0.0058 µM [falling, full curve, poor fit]

O=C(CSC(=S)N1CCSCC1)c1ccccc1
cell number change: 76.7%

CCCC(=O)Nc1ccc(C(=O)n2nnc3ccccc32)cc1
cell number change: -135% | AC50 [1]: 23.1 µM [falling, partial curve] | AC50 [2]: 29.1 µM [falling, single point]

CCc1nc2nc(C)c(NS(=O)(=O)c3ccc(Cl)s3)c(=O)n2[nH]1
cell number change: -9.52%

O=C(COC(=O)c1cc([N+](=O)[O-])ccc1NCCO)c1ccccc1
cell number change: 11.2% | AC50 [2]: 11.6 µM [rising, partial curve, poor fit]

CC(=O)c1ccc(NC(=O)c2cccs2)cc1
cell number change: -20.2% | AC50 [1]: 0.731 µM [falling, full curve]

O=C(COc1cc(Cl)ccc1Cl)Nc1nnc(C2CC2)s1
cell number change: 31.7% | AC50 [1]: 14.6 µM [rising, partial curve, poor fit] | AC50 [2]: 8.2 µM [rising, partial curve, poor fit]

COC(=O)c1c(C)oc(C)c1S(=O)(=O)NCc1ccc(Cl)cc1Cl
AC50 [2]: 5.8 µM [rising, single point]

COc1ccc(C(=O)O)cc1NC(=S)NC(=O)/C=C/c1ccc(C(C)C)cc1
cell number change: -28.7% | AC50 [2]: 23.1 µM [falling, partial curve]

COc1ccc(OC)c(NC(=O)C2CCN(S(=O)(=O)c3cccs3)CC2)c1
cell number change: -120% | AC50 [1]: 16.4 µM [falling, partial curve] | AC50 [2]: 8.2 µM [falling, partial curve]
